Data: patent US20150344583A1
Substitutions are numbered along the chain they refer to. No constants are given. Whether binding was seen depends on the method and setting. Some entries that bind do so weakly or less than the wild type. Each block holds one binder with its values, some of them ahead of it.

By UniProt entry, the sequences of proteins in these tests, tags left out. Where a name states a change or a piece, a line headed by the entry shows the natural chain unless it says otherwise.
UniProt Q02223: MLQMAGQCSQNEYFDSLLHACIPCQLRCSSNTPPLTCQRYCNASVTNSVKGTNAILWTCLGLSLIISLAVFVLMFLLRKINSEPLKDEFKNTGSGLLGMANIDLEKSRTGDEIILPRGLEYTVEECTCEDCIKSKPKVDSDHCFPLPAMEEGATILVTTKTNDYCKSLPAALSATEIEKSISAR

Experiments:
[1] = target: cynomolgus (Macaca fascicularis) BCMA on cells (cynomolgus (Macaca fascicularis)); assay: FACS screening, second campaign
[2] = target: clipped form of Sumo-huBCMA, SEQ ID NO:357 (human); assay: LC/MS chromatogram
[3] = target: clipped form of Sumo-huBCMA, SEQ ID NO:356 (human); assay: LC/MS chromatogram
[4] = target: clipped form of Sumo-huBCMA, SEQ ID NO:358 (human); assay: LC/MS chromatogram
[5] = target: clipped form of Sumo-huBCMA, SEQ ID NO:354 (human); assay: LC/MS chromatogram
[6] = target: human BCMA (huBCMA) on cells (human) (UniProt Q02223); assay: FMAT and FACS screening, second campaign
[7] = target: rhuBCMA fusion protein (6xHis::Sumo::huBCMA(aa 5-51)::GGS::G3::Avi) (human); assay: SEC, then LC/MS of the antibody-bound peak
[8] = target: clipped form of Sumo-huBCMA, SEQ ID NO:357 (human); assay: SEC, then LC/MS of the antibody-bound peak
[9] = target: clipped form of Sumo-huBCMA, SEQ ID NO:356 (human); assay: SEC, then LC/MS of the antibody-bound peak
[10] = target: clipped form of Sumo-huBCMA, SEQ ID NO:358 (human); assay: SEC, then LC/MS of the antibody-bound peak
[11] = target: clipped form of Sumo-huBCMA, SEQ ID NO:354 (human); assay: SEC, then LC/MS of the antibody-bound peak
[12] = target: rhuBCMA fusion protein (6xHis::Sumo::huBCMA(aa 5-51)::GGS::G3::Avi) (human); assay: SEC chromatograms
[13] = target: clipped form of Sumo-huBCMA, SEQ ID NO:356 (human); assay: SEC chromatograms
[14] = target: clipped form of Sumo-huBCMA, SEQ ID NO:355 (human); assay: SEC chromatograms
[15] = target: clipped form of Sumo-huBCMA, SEQ ID NO:354 (human); assay: SEC chromatograms
[16] = target: cynomolgus (Macaca fascicularis) BCMA on cells (cynomolgus (Macaca fascicularis)); assay: FACS on 293T cells transiently transfected with cynomolgus BCMA
[17] = target: rhuBCMA fusion protein (6xHis::Sumo::huBCMA(aa 5-51)::GGS::G3::Avi) (human); assay: size exclusion chromatography (S200, PBS), UV trace in mAU against ml; 500 ug antibody incubated with 500 ug Sumo-BCMA
[18] = target: cynomolgus (Macaca fascicularis) BCMA on cells (cynomolgus (Macaca fascicularis)); assay: FACS
[19] = target: rhuBCMA fusion protein (6xHis::Sumo::huBCMA(aa 5-51)::GGS::G3::Avi) (human); assay: SEC of antibody and Sumo-BCMA mixtures
[20] = target: clipped form of Sumo-huBCMA, SEQ ID NO:356 (human); assay: SEC of antibody and Sumo-BCMA mixtures
[21] = target: clipped form of Sumo-huBCMA, SEQ ID NO:355 (human); assay: SEC of antibody and Sumo-BCMA mixtures
[22] = target: clipped form of Sumo-huBCMA, SEQ ID NO:354 (human); assay: SEC of antibody and Sumo-BCMA mixtures
[23] = target: cynomolgus (Macaca fascicularis) BCMA on cells (cynomolgus (Macaca fascicularis)); assay: FACS on cynomolgus BCMA transfected 293T cells
[24] = target: rhuBCMA fusion protein (6xHis::Sumo::huBCMA(aa 5-51)::GGS::G3::Avi) (human); assay: LC/MS (ESI-TOF, deconvoluted mass) of the reduced SEC fraction of 29C12 + sumoBCMA [lower panel]
[25] = target: clipped form of Sumo-huBCMA, SEQ ID NO:357 (human); assay: as above
[26] = target: clipped form of Sumo-huBCMA, SEQ ID NO:356 (human); assay: as above
[27] = target: clipped form of Sumo-huBCMA, SEQ ID NO:358 (human); assay: as above
[28] = target: clipped form of Sumo-huBCMA, SEQ ID NO:354 (human); assay: as above
[29] = target: human BCMA (huBCMA) on cells (human) (UniProt Q02223); assay: FACS on H929 cells

binding [1]: binds | binding [2]: binds | binding [3]: binds | binding [4]: binds | binding [5]: binds | binding [6]: binds | binding [7]: binds | binding [8]: binds | binding [9]: binds | binding [10]: binds | binding [11]: binds | binding [12]: binds | binding [13]: binds | binding [14]: binds | binding [15]: binds | binding [16]: binds | binding [17]: binds | binding [18]: binds | binding [19]: binds | binding [20]: binds | binding [21]: binds | binding [22]: binds | binding [23]: binds | binding [24]: binds | binding [25]: binds | binding [26]: binds | binding [27]: binds | binding [28]: binds | binding [29]: binds
B1: 29C12 (antibody, V domains shown)
VH: EVQLLESGGALVQPGGSLRLSCAASGFTFSSYAMNWVRQAPGKGLEWVSAISVGGDTYYADSVKGRFTISRDNSKNTLYLQMNSLRAEDTAVYYCAKDQVTMVRGVWYYYGLDVWGQGTTVTVSS
VL: DIVMIQSPLSLPVTPGEPASISCRSSQSLLHSNGNNYLDWYLQKPGQSPHLLISLGSNRTSGVPDRFSGSGSGTDFTLKISRVEAEDVGVYYCMQALQPPRRFGQGTKLEIKR

binding [1]: binds | binding [6]: binds | binding [16]: binds | binding [18]: binds | binding [23]: binds | binding [29]: binds
B2: 32B5 (antibody, V domains shown)
VH: B1 VH with Q81H, M82V, R86S, T90S, M102L
VL: B1 VL with D1V, M4L, V90F
